{"source": "patent US20080160106A1", "about": "“Novel Uses for Proton Pump Inhibitors” (Istituto Superiore de Sanita, priority 2004, published 2008)", "key": {"[1]": {"system": "human melanoma cells", "experiment": "Effects of omeprazole on human tumour growth in vivo in SCID mice engrafted with human melanoma cells", "set-up": "species or system CB.17 scid/scid mice"}, "[2]": {"system": "human melanoma cells resistant to cisplatin", "experiment": "Effects of omeprazole on cisplatin resistance in vitro (cisplatin dose response curve)", "format": "cell-based", "protocol": "Cytotoxicity assay: Cytotoxicity was evaluated using the Trypan blue exclusion method after treatment with each chemotherapeutic drug. Briefly, after treatment, cells growing in suspension were collected, centrifuged and resuspended in PBS1X. Alternatively, cells growing in adherence were collected, pooling both adherent (live) after trypsinisation and in suspension (assumed dead) cells. Cells were thus centrifuged (10 minutes at 1500 rpm) and resuspended in PBS1X. An aliquot of the cell suspension was diluted 1:1 (v/v) with 0.4% trypan blue. After 5 minutes, cells were loaded on a haemocytometer (Neubauer) and both live (not stained) and dead (blue stained) cells were counted under a light microscope. Cell viability was assessed calculating the percentage of dead cells using the formula:\n% dead cells=(no. dead cells/no. dead cells+no. live cells)×100.\nDrugs: The PPIs were as in Example 1, above. Cisplatin (Aventis, France) was resuspended in PBS1X at a stock concentration of 1 mg/ml, and stored at −20° C. Both stock solutions were thawed immediately before use and not frozen again. 5-Fluorouracil (Teva Pharma, Holland) was supplied in the form of a solution at a concentration of 50 mg/ml, and was stored at r.t. as indicated by the supplier. Vinblastine sulphate (Eli Lilly, Paris, France) was resuspended in a solution of EtOH/Distilled water 1:1000, at a concentration of 0.1 mg/ml, thus obtaining a stock solution stored at 4° C. and used in 3 days after resuspension.\nTumour cells: Human tumour cells were as in Example 1, above.\nDose response curves: Tumour cells growing in suspension were plated at 1.5×10^5/ml, in 24 wells cell culture plate (Costar). Tumour cells growing in adherence were plated at 3×10^4 cells/well in 24 wells cell culture plate. Each dilution was tested at least in triplicate in each experiment."}, "[3]": {"system": "human colon adenocarcinoma or melanoma cells", "experiment": "Effects of omeprazole on 5-fluorouracil resistance in vitro (5-FU dose response curve)", "format": "cell-based", "conditions": "24 hrs pre-treatment with omeprazole, then 5-FU"}, "[4]": {"system": "CEM-VBL100 cells", "experiment": "Effects of omeprazole on P-gp expressing multidrug resistant cells (vinblastine dose response curve)", "format": "cell-based, human", "conditions": "24 hrs pre-treatment with omeprazole, then VBL"}, "[5]": {"system": "MCF7-DX cell line", "experiment": "Effects of omeprazole on MDR cell line MCF7-DX", "format": "cell-based, human", "conditions": "same experiments as on CEM-VBL100, not shown"}, "[6]": {"system": "human melanoma cells", "experiment": "In vivo effects of omeprazole and cisplatin on tumour growth in the human/SCID mouse model", "set-up": "species or system CB.17 scid/scid mice", "protocol": "Animals: CB.17 SCID/SCID female mice (Harlan, Italy) were used at 4-5 weeks of age and were kept under specific pathogen-free conditions. SCID mice were housed in microisolator cages, and all food, water and bedding were autoclaved prior to use.\nTransplantation and growth of human tumours in SCID mice: Each mouse was injected subcutaneously (s.c.) into the right flank with 3×10^6 cells resuspended in 0.2 ml RPMI 1640 supplemented with 10% FCS. After transplantation, the size of each tumour was measured using callipers. The tumour weight was estimated according to Geran et al. (1972) using the formula:\nTumour weight (mg)=length (mm)×width^2 (min)/2.\nMice treatment: Omeprazole (Astra-Zeneca, Italy) and pantoprazole (Sigma Tau) were administered at a dose of 75 mg/kg by gavage as previously described (Watson and Smith, 2001), as a suspension in PBS1X. Lansoprazole (Pharmacia, Sweden) and rabeprazole (Janssen) were administered at a dose of 25 mg/kg by gavage as previously described (Watson and Smith, 2001), as a suspension in PBS1X.\nCisplatin (Aventis, France) was administered intraperitoneally (i.p.) at a dose of 5 mg/kg (Son and Huang 1994).\nOther: unless otherwise specified, other parameters are as set out in Examples 1 and 2, above."}}, "note": "“Also recorded” adds a separate entry of the source. At least one structure is not confirmed: it was looked up by name or label, or the drawing left a doubt."}
{"smiles": "COc1ccc2[nH]c([S+]([O-])Cc3ncc(C)c(OC)c3C)nc2c1", "note": "(centres unmarked) [omeprazole]", "values": [{"measurement": "tumour growth (tumour weight)", "setting": "[1]; omeprazole 75 mg/kg by gavage, repeated (four) treatments", "value": "markedly reduced tumour growth; also recorded: straightforward effect of omeprazole in inhibiting tumour growth"}, {"measurement": "histological examination of the tumours", "setting": "[1]; omeprazole-treated mice, after the experiments were stopped", "value": "the tumour mass was occupied by a huge necrotic area that mostly accounted for the tumour size"}, {"measurement": "susceptibility to cisplatin", "setting": "[2]; 24 hrs pre-treatment with omeprazole, then cisplatin", "value": "markedly enhanced susceptibility to cisplatin in all the human melanoma cells tested; also recorded: almost completely restored cell sensitivity to cisplatin; also recorded: only pre-treatment of melanoma cells with omeprazole was able to revert cisplatin resistance"}, {"measurement": "effect on viability, cisplatin pre-treatment", "setting": "[2]; cisplatin given before omeprazole", "value": "did not lead to any measurable effect on the viability of human melanoma cells"}, {"measurement": "effect on viability, omeprazole-cisplatin co-treatment", "setting": "[2]; omeprazole and cisplatin given contemporaneously", "value": "did not lead to any measurable effect on the viability of human melanoma cells"}, {"measurement": "5-fluorouracil sensitivity", "setting": "[3]", "value": "5-fluorouracil sensitivity was restored and almost completely restored cell sensitivity to 5-FU"}, {"measurement": "vinblastine-sulphate sensitivity", "setting": "[4]", "value": "vinblastine-sulphate sensitivity was restored; also recorded: almost completely restored cell sensitivity to VBL"}, {"measurement": "restoration of drug sensitivity", "setting": "[5]", "value": "Comparable results"}, {"measurement": "tumour growth, co-treatment with cisplatin and omeprazole", "setting": "[6]; cisplatin and omeprazole at the same time", "value": "did not show any significant effect on tumour growth; also recorded: did not induce any inhibition drug resistance"}, {"measurement": "tumour sensitivity to cisplatin (tumour growth)", "setting": "[6]; omeprazole by gavage day 1, cisplatin 5 mg/kg i.p. day 2", "value": "markedly increased tumour sensitivity to cisplatin; also recorded: strongly enhanced tumour sensitivity to cisplatin; also recorded: straightforward effect of omeprazole pre-treatment in reverting cisplatin resistance"}, {"measurement": "histological examination of the tumours", "setting": "[6]; omeprazole/cisplatin-treated mice, after stopping the experiments", "value": "the tumour mass was occupied by a huge necrotic area that mostly accounted for the tumour size"}]}
